PubChem BioAssay AID1117269, University of Michigan, 2014
Aim: 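Kinome-wide knockdown screen for regulators of TGF-beta reporter output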 (primary screen). Cells: human A549 lung cancer and 1833 breast cancer (MDA-MB-231-derived) cell lines carrying a stable BTR luciferase reporter. Reagents: siRNA pool against human genes. Timing: 72 h after transfection, then 1 h TGF-beta before the read. Treatment: TGF-beta 10 ng/mL added one hour before luciferin and read-out. Detection: 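BTR reporter bioluminescence as fold change relative to non-targeting siRNA, averaging triplicates per line; knockdown for 72 h, then TGF-beta at 10 ng/mL 1 h prior to reading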. Direction: fold over scrambled siRNA, A549 and fold over scrambled siRNA, 1833: higher = more reporter light, weaker TGF-beta receptor signalling. Rule for the call: 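Hit in either line counts as active; per-line hits lie above an upper limit from quartiles of averaged log fold values, in plate and screen-wide analyses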. Calls: active = hit in at least one line; inactive = hit in neither line.
In all, the deposit lists 714 reagents; shown is an unselected part. 49 of all reagents (6.9%) were called active. 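Active means a hit in at least one line; per-line hit columns show which; some siRNA pools appear more than once.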 Not given: the amount of reagent.

With TESK2, what was measured?
fold over scrambled siRNA, A549: 3.16; fold over scrambled siRNA, 1833: 7.33; hit in A549: not a hit in A549; hit in 1833: not a hit in 1833; activity call: inactive

For NME1, how do the results read?
fold over scrambled siRNA, A549: 2.02; fold over scrambled siRNA, 1833: 3.19; hit in A549: not a hit in A549; hit in 1833: not a hit in 1833; activity call: inactive

For MAP3K15, what was measured?
fold over scrambled siRNA, A549: 2.4; fold over scrambled siRNA, 1833: 17.9; hit in A549: not a hit in A549; hit in 1833: hit in 1833

What did the screen give for IPPK?
fold over scrambled siRNA, A549: 2.65; fold over scrambled siRNA, 1833: 7.47; hit in A549: not a hit in A549; hit in 1833: not a hit in 1833; activity call: inactive

How did the screen score EPHA1?
fold over scrambled siRNA, A549: 2.9; fold over scrambled siRNA, 1833: 5.6; hit in A549: not a hit in A549; hit in 1833: not a hit in 1833; activity call: inactive

For MYLK4, what does the deposit list?
fold over scrambled siRNA, A549: 4.66; fold over scrambled siRNA, 1833: 8.83; hit in A549: not a hit in A549; hit in 1833: not a hit in 1833; activity call: inactive

Which result is listed for RPS6KL1?
fold over scrambled siRNA, A549: 0.477; fold over scrambled siRNA, 1833: 2.13; hit in A549: not a hit in A549; hit in 1833: not a hit in 1833; activity call: inactive

With MAP3K1, what was measured?
fold over scrambled siRNA, A549: 1.98; fold over scrambled siRNA, 1833: 2; hit in A549: not a hit in A549; hit in 1833: not a hit in 1833; activity call: inactive

With RFK, what does the deposit list?
fold over scrambled siRNA, A549: 3.2; fold over scrambled siRNA, 1833: 3.13; hit in A549: not a hit in A549; hit in 1833: not a hit in 1833; activity call: inactive

With PAK3, how do the results read?
fold over scrambled siRNA, A549: 4.16; fold over scrambled siRNA, 1833: 3.22; hit in A549: not a hit in A549; hit in 1833: not a hit in 1833; activity call: inactive

How did the screen score EPHB3?
fold over scrambled siRNA, A549: 1.29; fold over scrambled siRNA, 1833: 3.81; hit in A549: not a hit in A549; hit in 1833: not a hit in 1833; activity call: inactive

With CIB2, what does the deposit list?
fold over scrambled siRNA, A549: 0.553; fold over scrambled siRNA, 1833: 1.87; hit in A549: not a hit in A549; hit in 1833: not a hit in 1833; activity call: inactive

For COQ8B, how do the results read?
fold over scrambled siRNA, A549: 0.919; fold over scrambled siRNA, 1833: 2.86; hit in A549: not a hit in A549; hit in 1833: not a hit in 1833; activity call: inactive

What did the screen give for GTF2H1?
fold over scrambled siRNA, A549: 2.96; fold over scrambled siRNA, 1833: 0.889; hit in A549: not a hit in A549; hit in 1833: not a hit in 1833; activity call: inactive
